Assays:
[1] = tested on: T1, amyloglucosidase from Rhizopus mold; test: glycosidase inhibition assay; type: biochemical, Rhizopus sp.; conditions: 1 mM inhibitor, optimal pH
T1 construct: commercial native enzyme preparation

[2] = tested on: T2, β-D-glucosidase from almonds; test: glycosidase inhibition assay; type: biochemical, Prunus dulcis; conditions: 1 mM inhibitor, optimal pH
T2 construct: gene emulsin

SMILES	% inhibition at 1 mM [1] [%]	% inhibition at 1 mM [2] [%]
N[C@@H]1C[C@@H](O)[C@@H](O)[C@H](O)[C@H](O)C[C@H]1O [compound 16, aminocyclitol 16]	20	11
OCC(CO)N[C@H]1C[C@H](O)[C@@H](O)[C@H](O)[C@@H](O)C[C@@H]1O [compound 19, C8-voglibose mimetic 19]	28	
OCC(CO)N[C@@H]1C[C@@H](O)[C@@H](O)[C@H](O)[C@H](O)C[C@H]1O [compound 20, aminocyclitol 20]	27	19
O[C@H]1[C@H](O)[C@H](O)C[C@H](O)[C@H](O)C[C@H]1O [compound 6, C8 hexa-substituted carbasugar 6]	21	
N[C@H]1C[C@H](O)[C@@H](O)[C@H](O)[C@@H](O)C[C@@H]1O [compound 15, aminocyclitol 15]	23	7
O[C@H]1[C@H](O)[C@@H](O)C[C@H](O)[C@H](O)C[C@@H]1O [compound 5, C8 hexa-substituted carbasugar 5]	20	
